Experimental data: PubChem BioAssay AID504793 (Drosophila RNAi Screening Center, 2011)

- Purpose: 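Whole-genome screen for parts of the DNA damage checkpoint at G2/M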 (primary screen)
- Cells: Drosophila S2R+ cells
- Reagent: long dsRNA against Drosophila genes, about 0.25 µg dsRNA per well
- Time to read-out: 4 days of dsRNA, then 4 hours of drug before read-out
- Challenge: doxorubicin 0.5 µM for 4 hours to cause double-strand breaks, in cells also given a low, harmless dose of dsRNA against nbs to sensitise the assay
- Measurement: 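Mitotic index as the number of phospho-histone H3-positive cells in each well following doxorubicin, given as raw counts without normalisation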
- Reading the numbers: mitotic cells: higher = more cells in mitosis, weaker G2 arrest
- Hit rule: 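Genes are called active only when high mitotic counts were reproduced with independent dsRNAs and mitosis was checked for delay without damage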
- Calls: active = confirmed in follow-up tests; inactive = not confirmed
The deposit covers about 23,000 reagents; shown is an unselected part of those that have a named target and a result. Over the whole deposit, 62 (0.27%) got an active call. 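Calls come from follow-up tests whose scores are not deposited, so confirmed genes may have low counts here; counts are not normalised per plate.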 Raw values vary from plate to plate and are shown uncorrected. The numbers tell different reagents against one gene apart. Names joined by + are all predicted targets of the reagent.

| target gene | reagent no. | mitotic cells, replicate 1 | Outcome |
| --- | --- | --- | --- |
| pncr008:3L (retired record) (GeneID 3771817) | 1 | 7 | inactive |
| pncr008:3L (retired record) (GeneID 3771817) | 2 | 16 | inactive |
| CG17078 (GeneID 33195) | 1 | 7 | inactive |
| CG17078 (GeneID 33195) | 2 | 8 | inactive |
| CG10332 (retired record) + IM18 | 1 | 13 | inactive |
| CG1307 (GeneID 40814) | 1 | 4 | inactive |
| CG7565 (GeneID 38893) | 1 | 6 | inactive |
| Spc105R (GeneID 40300) | 1 | 9 | inactive |
| Poxn (GeneID 36741) | 1 | 11 | inactive |
| Poxn (GeneID 36741) | 2 | 6 | inactive |
| Poxn (GeneID 36741) | 3 | 7 | inactive |
| CG7798 (GeneID 36798) | 1 | 10 | inactive |
| Clc (GeneID 40221) | 1 | 7 | inactive |
| Clc (GeneID 40221) | 2 | – | inactive |
| Osi12 (GeneID 40766) | 1 | 11 | inactive |
| CG3434 (GeneID 39098) | 1 | 2 | inactive |
| Vps13B (GeneID 43550) | 1 | 7 | inactive |
| Mo25 (GeneID 39858) | 1 | 4 | inactive |
| CG13970 (GeneID 2768911) | 1 | 9 | inactive |
| CG13970 (GeneID 2768911) | 2 | 5 | inactive |
| CG31915 (GeneID 319025) | 1 | 2 | inactive |
| CG3251 (GeneID 33671) | 1 | 4 | inactive |
| CG33309 (GeneID 2768926) | 1 | 10 | inactive |
| Dg (GeneID 36773) | 1 | 6 | inactive |
| CG7912 (GeneID 43561) | 1 | 17 | inactive |
| TwdlW (GeneID 42075) | 1 | – | inactive |
| TwdlW (GeneID 42075) | 2 | 10 | inactive |
| LysD (GeneID 38127) | 1 | 10 | inactive |
| CG30083 (GeneID 246444) | 1 | 5 | inactive |
| CG1840 (GeneID 32150) | 1 | 4 | inactive |
| CG1840 (GeneID 32150) | 2 | 8 | inactive |
| RpL19 (GeneID 37995) | 1 | 5 | inactive |
| RpL19 (GeneID 37995) | 2 | 3 | inactive |
| Cdc7 (GeneID 31598) | 1 | 18 | inactive |
| Cdc7 (GeneID 31598) | 2 | 7 | inactive |
| pit (GeneID 42595) | 1 | 7 | inactive |
| pit (GeneID 42595) | 2 | 6 | inactive |
| pit (GeneID 42595) | 3 | 5 | inactive |
| HIP + HIP-R | 1 | 5 | inactive |
| HIP + HIP-R | 2 | 16 | inactive |
| CG10749 (GeneID 39470) | 1 | 1 | inactive |
| CG10749 (GeneID 39470) | 2 | 8 | inactive |
| gogo (GeneID 40225) | 1 | – | inactive |
| gogo (GeneID 40225) | 2 | 7 | inactive |
| CG31269 (GeneID 318653) | 1 | 6 | inactive |
| CG31269 (GeneID 318653) | 2 | 5 | inactive |
| dpr10 (GeneID 39180) | 1 | 9 | inactive |
| dpr10 (GeneID 39180) | 2 | 3 | inactive |
| dpr10 (GeneID 39180) | 3 | 5 | inactive |
| CG11251 (GeneID 39490) | 1 | 4 | inactive |
| a6 (GeneID 31127) | 1 | 6 | inactive |
| LRP1 (GeneID 35799) | 1 | 7 | inactive |
| Alk (GeneID 53425) | 1 | 8 | inactive |
| Alk (GeneID 53425) | 2 | 7 | inactive |
| Polr2L (GeneID 42942) | 1 | 15 | inactive |
| Cpr65Aw (GeneID 38706) | 1 | 4 | inactive |
| cype (GeneID 46040) | 1 | 7 | inactive |
| 5PtaseI (GeneID 326119) | 1 | 8 | inactive |
| 5PtaseI (GeneID 326119) | 2 | 10 | inactive |
| 5PtaseI (GeneID 326119) | 3 | 10 | inactive |
| Mob4 (GeneID 35576) | 1 | 2 | inactive |
| Mob4 (GeneID 35576) | 2 | 6 | inactive |
| alpha-Est7 (GeneID 40901) | 1 | 11 | inactive |
| alpha-Est7 (GeneID 40901) | 2 | 7 | inactive |
| Trf4-1 (GeneID 31795) | 1 | 13 | inactive |
| CG6972 + CCAP | 1 | 13 | inactive |
| CG5561 (GeneID 33321) | 1 | 7 | inactive |
| Obp56i (GeneID 246667) | 1 | 9 | inactive |
| Magi (GeneID 37403) | 1 | 8 | inactive |
| Magi (GeneID 37403) | 2 | 10 | inactive |
| Magi (GeneID 37403) | 3 | 11 | inactive |
| Eip93F (GeneID 44936) | 1 | 9 | inactive |
| Eip93F (GeneID 44936) | 2 | 2 | inactive |
| CG9451 (GeneID 40118) | 1 | 1 | inactive |
| CG9451 (GeneID 40118) | 2 | 6 | inactive |
| mthl7 (GeneID 38910) | 1 | 3 | inactive |
| Iml1 (GeneID 38176) | 1 | 7 | inactive |
| RabX2 (GeneID 31971) | 1 | 10 | inactive |
| CG42322 (GeneID 42455) | 1 | 7 | inactive |
| CG42322 (GeneID 42455) | 2 | 6 | inactive |
| CG42322 (GeneID 42455) | 3 | 10 | inactive |
| CG15144 (GeneID 35063) | 1 | 5 | inactive |
| CG15144 (GeneID 35063) | 2 | 2 | inactive |
| Ggamma1 (GeneID 35881) | 1 | 10 | inactive |
| Dcr-2 (GeneID 36993) | 1 | 4 | inactive |
| Dcr-2 (GeneID 36993) | 2 | 3 | inactive |
| mRpL39 (GeneID 39627) | 1 | 4 | inactive |
| mRF1 (GeneID 34720) | 1 | 10 | inactive |
| mRF1 (GeneID 34720) | 2 | 3 | inactive |
| Art6 (GeneID 41699) | 1 | 2 | inactive |
| CG9676 (GeneID 32647) | 1 | 7 | inactive |
| CG13202 (GeneID 36222) | 1 | 6 | inactive |
| CG2839 (GeneID 33244) | 1 | 2 | inactive |
| CG2839 (GeneID 33244) | 2 | 7 | inactive |
| inc (GeneID 31110) | 1 | 7 | inactive |
| inc (GeneID 31110) | 2 | 11 | inactive |
| inc (GeneID 31110) | 3 | 3 | inactive |
| CG12011 (GeneID 38211) | 1 | 6 | inactive |
| CG12011 (GeneID 38211) | 2 | 11 | inactive |
| cher (GeneID 42066) | 1 | 3 | inactive |
| cher (GeneID 42066) | 2 | 2 | inactive |
| S2P (GeneID 36262) | 1 | 7 | inactive |
| S2P (GeneID 36262) | 2 | 8 | inactive |
| bmm (GeneID 39611) | 1 | 11 | inactive |
| CG42795 (GeneID 41252) | 1 | 7 | inactive |
| CG42795 (GeneID 41252) | 2 | 6 | inactive |
| CG42795 (GeneID 41252) | 3 | 9 | inactive |
| Eps-15 (GeneID 37961) | 1 | 8 | inactive |
| TfIIB (GeneID 34430) | 1 | 22 | inactive |
| Cpr23B (GeneID 33480) | 1 | 3 | inactive |
